PubChem BioAssay AID686938, Drosophila RNAi Screening Center | 2013
Purpose: 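Knock-downs reducing store-operated calcium influx in Drosophila cells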 (primary screen). System: Drosophila S2R+ cells. Reagent: long dsRNA against Drosophila genes, about 0.25 µg dsRNA per well, roughly 10,000 cells. Duration: 5 days of knock-down before the calcium assay. Conditions: thapsigargin (SERCA pump blocker) to empty calcium stores; entry signal taken 4 min after adding it. Measured: 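Per-well fluo-4 fluorescence in two replicates, unnormalised, measured in resting cells and 4 min after store depletion by the SERCA blocker thapsigargin; ratio of the two present in few wells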. Direction: calcium entry signal: higher = stronger calcium signal after store depletion; resting calcium signal: higher = higher resting calcium signal. Units: calcium entry signal in fluorescence units; resting calcium signal in fluorescence units. Active means: 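Hit if the duplicate-averaged plate z-score for entry over resting signal is under −3; wells with weak total dye signal (Fmax z < −2) or more than 5 off-targets removed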. Meaning of the calls: active = strongly reduced calcium entry; inactive = no strong reduction.
The deposit covers about 23,000 reagents; shown is an unselected part of those with a known target gene and a result. In the full data, 75 (0.33%) were called active. 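Raw plate signals without normalisation; calls rest on plate z-scores that were not deposited; ratio present for only 364 wells.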 A number with no mark means an inactive call. Reagents against one gene are numbered here. A plus sign joins genes that one reagent is predicted to hit. Reagent sequences are not shown. Not stated in the record: the dose of the treatment.

Tps1 (GeneID 33642)
- calcium entry signal, replicate 1: 4.07e7
- resting calcium signal, replicate 1: 2.40e7

Sac1 (GeneID 38137)
- calcium entry signal, replicate 1: 2.90e7
- calcium entry signal, replicate 2: 3.38e7
- resting calcium signal, replicate 1: 1.43e7
- resting calcium signal, replicate 2: 1.47e7

CG6738 (GeneID 42732)
- calcium entry signal, replicate 1: 4.22e7
- calcium entry signal, replicate 2: 3.79e7
- resting calcium signal, replicate 1: 1.97e7
- resting calcium signal, replicate 2: 1.57e7

Agpat4 (GeneID 39819)
- calcium entry signal, replicate 1: 4.62e7
- calcium entry signal, replicate 2: 7.47e7
- resting calcium signal, replicate 1: 2.08e7
- resting calcium signal, replicate 2: 2.83e7

Arpc1 (GeneID 34793)
- calcium entry signal, replicate 1: 5.03e7
- resting calcium signal, replicate 1: 2.32e7

CG15139 (retired record) (GeneID 12798250)
- calcium entry signal, replicate 1: 4.68e7
- calcium entry signal, replicate 2: 3.54e7
- resting calcium signal, replicate 1: 2.11e7
- resting calcium signal, replicate 2: 1.39e7

Ost48 (GeneID 31849)
- calcium entry signal, replicate 1: 3.14e7
- calcium entry signal, replicate 2: 3.74e7
- resting calcium signal, replicate 1: 1.63e7
- resting calcium signal, replicate 2: 1.73e7

CG13244 (GeneID 34940)
- calcium entry signal, replicate 1: 2.71e7
- calcium entry signal, replicate 2: 3.12e7
- resting calcium signal, replicate 1: 1.70e7
- resting calcium signal, replicate 2: 1.50e7

gish (GeneID 49701)
- calcium entry signal, replicate 1: 3.57e7
- calcium entry signal, replicate 2: 2.88e7
- resting calcium signal, replicate 1: 1.62e7
- resting calcium signal, replicate 2: 1.35e7

CG9410 + CG15908 #1
- calcium entry signal, replicate 1: 4.39e7
- calcium entry signal, replicate 2: 3.99e7
- resting calcium signal, replicate 1: 2.15e7
- resting calcium signal, replicate 2: 1.95e7

CG9410 + CG15908 #2
- calcium entry signal, replicate 1: 4.45e7
- calcium entry signal, replicate 2: 4.09e7
- resting calcium signal, replicate 1: 2.24e7
- resting calcium signal, replicate 2: 1.95e7

cni (GeneID 34967)
- calcium entry signal, replicate 1: 5.39e7
- calcium entry signal, replicate 2: 3.81e7
- resting calcium signal, replicate 1: 2.45e7
- resting calcium signal, replicate 2: 1.61e7

l(3)72Dr (GeneID 39778)
- calcium entry signal, replicate 1: 4.19e7
- calcium entry signal, replicate 2: 7.31e7
- resting calcium signal, replicate 1: 2.16e7
- resting calcium signal, replicate 2: 2.68e7

CG14330 (GeneID 42102)
- calcium entry signal, replicate 1: 3.82e7
- calcium entry signal, replicate 2: 4.79e7
- resting calcium signal, replicate 1: 1.78e7
- resting calcium signal, replicate 2: 7.63e7

CG18063 (GeneID 34943)
- calcium entry signal, replicate 1: 5.05e7
- calcium entry signal, replicate 2: 3.52e7
- resting calcium signal, replicate 1: 2.24e7
- resting calcium signal, replicate 2: 1.59e7

CG8319 (GeneID 41165)
- calcium entry signal, replicate 1: 3.52e7
- calcium entry signal, replicate 2: 3.56e7
- resting calcium signal, replicate 1: 1.77e7
- resting calcium signal, replicate 2: 1.97e7

Quoted from the entries so far for reference:
cni (GeneID 34967)
- calcium entry signal, replicate 1: 5.39e7
- calcium entry signal, replicate 2: 3.81e7
- resting calcium signal, replicate 1: 2.45e7
- resting calcium signal, replicate 2: 1.61e7

l(3)72Dr (GeneID 39778)
- calcium entry signal, replicate 1: 4.19e7
- calcium entry signal, replicate 2: 7.31e7
- resting calcium signal, replicate 1: 2.16e7
- resting calcium signal, replicate 2: 2.68e7

Continued:
Osi9 (GeneID 40763)
- calcium entry signal, replicate 1: 4.43e7
- calcium entry signal, replicate 2: 2.35e7
- resting calcium signal, replicate 1: 2.24e7
- resting calcium signal, replicate 2: 1.20e7

CG4362 (GeneID 42410)
- calcium entry signal, replicate 1: 3.17e7
- calcium entry signal, replicate 2: 3.51e7
- resting calcium signal, replicate 1: 4.04e7
- resting calcium signal, replicate 2: 1.51e7

Fis1 (GeneID 49892)
- calcium entry signal, replicate 1: 3.04e7
- calcium entry signal, replicate 2: 3.47e7
- resting calcium signal, replicate 1: 1.60e7
- resting calcium signal, replicate 2: 1.65e7

gsb (GeneID 38005)
- calcium entry signal, replicate 1: 3.51e7
- calcium entry signal, replicate 2: 3.19e7
- resting calcium signal, replicate 1: 1.79e7
- resting calcium signal, replicate 2: 1.42e7

CG11309 (GeneID 40356)
- calcium entry signal, replicate 1: 3.49e7
- calcium entry signal, replicate 2: 3.70e7
- resting calcium signal, replicate 1: 1.59e7
- resting calcium signal, replicate 2: 2.19e7

Tie (GeneID 38559) #1
- calcium entry signal, replicate 1: 3.43e7
- calcium entry signal, replicate 2: 3.44e7
- resting calcium signal, replicate 1: 1.89e7
- resting calcium signal, replicate 2: 1.54e7

Tie (GeneID 38559) #2
- calcium entry signal, replicate 1: 2.65e7
- calcium entry signal, replicate 2: 3.08e7
- resting calcium signal, replicate 1: 1.28e7
- resting calcium signal, replicate 2: 1.29e7

CG13064 (GeneID 2768963)
- calcium entry signal, replicate 1: 3.11e7
- calcium entry signal, replicate 2: 5.73e7
- resting calcium signal, replicate 1: 1.51e7
- resting calcium signal, replicate 2: 2.38e7

CG34193 (GeneID 5740572)
- calcium entry signal, replicate 1: 3.44e7
- calcium entry signal, replicate 2: 4.99e7
- resting calcium signal, replicate 1: 1.58e7
- resting calcium signal, replicate 2: 2.24e7

dos (GeneID 38321) #1
- calcium entry signal, replicate 1: 3.29e7
- calcium entry signal, replicate 2: 5.40e7
- resting calcium signal, replicate 1: 2.29e7
- resting calcium signal, replicate 2: 3.34e7

dos (GeneID 38321) #2
- calcium entry signal, replicate 1: 3.97e7
- calcium entry signal, replicate 2: 5.23e7
- resting calcium signal, replicate 1: 1.93e7
- resting calcium signal, replicate 2: 2.21e7

dos (GeneID 38321) #3
- calcium entry signal, replicate 1: 3.36e7
- calcium entry signal, replicate 2: 3.84e7
- resting calcium signal, replicate 1: 1.74e7
- resting calcium signal, replicate 2: 1.83e7
